# According to PubChem BioAssay AID1347423 (Functional Genomics Laboratory (NCATS/FGL), 2020):
# Among all 52,000 sequences or so, about 210 (0.4%) were called active.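 How the source made its calls: active means gene whose silencing raises cell survival under the drug, median off-target-corrected z-score across its silencing RNAs 2 or more; inactive means the rest.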 The list shows a part of the results.
# Assay: Resistance to Poly (ADP-Ribose) Polymerase inhibitor: Gene Identification via Genome-wide siRNA Screen
# Conditions: mouse BRCA2 R2336H ES cells, olaparib, CellTiter-Glo viability; hits give high values
# Method in brief: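 Mouse BRCA2 R2336H ES cells were reverse-transfected with siRNA (20 nM final), treated at 48 h with 500 nM olaparib, and read by CellTiter-Glo after 72 h. Scores: MAD-based z per siRNA, median per gene, seed off-target correction.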
row,Sequence,z-score
1,CCAAUUUACGACAAAUCGUTT against Entpd4,inactive: -0.269
2,GGAUGACUUCACUAAGAUUTT against Dpys,inactive: 0.568
3,GCCAAUAAACCCGUUUUUATT against Fxc1,inactive: 2.92
4,GGCUAAUUCUCAAAGAGAUTT against 4930588M11Rik,inactive: -1.23
5,GGGUAUGGCAUAAAUGUCCTT against Zpbp,inactive: -0.562
6,CGGAGACACCUACAUAUGUTT against LOC378878,inactive: -0.0445
7,CCACGAAAACGUGAAAUAUTT against Gpd1l,inactive: -0.21
8,GCUGCUCAAGUUGUGGUGATT against Sdh1,inactive: 0.805
9,CGCUGUUAUGGUUACCAUATT against Myoc,inactive: 0.411
10,GGAAAAUUCAGGAAGUUUGTT against 6530407C02Rik,inactive: 0.332
11,GGUCAGCGUGGAGUCAAUATT against AB041544,inactive: 0.388
12,GGCUCAGAAAGAAGAACUUTT against Pbxip1,inactive: -1.4
13,GGUAGCAGUUGCUUUAAUATT against Siah2,inactive: -0.19
14,GGUACAGGAAAAAAGAAGATT against Msl31,inactive: -0.435
15,GGGUUAUGACAAGAUGGCUTT against Olfr1440,inactive: 0.979
16,GGCUAGCUUGGUUCAUUUATT against 2010001O09Rik,inactive: 0.61
17,GGGCAGCUGGUCAAAAGUCTT against AI875199,inactive: -0.433
18,GGUGCUGUUUAAAACACAGTT against Stk6,inactive: -0.521
19,GGUCCUCCAGUUAAUGUCATT against Glra3,inactive: -0.127
20,GGCGCAGAUGAAGAAUCCGTT against Stxbp1,inactive: 0.785
21,CCAUUAUGCGUCAAGGCCUTT against Olfr1231,inactive: -0.935
22,GCGUACGAGCGAAGGAUACTT against Cdc42bpb,inactive: -0.209
23,GCCUAUAUCCAUGCACUGGTT against Frg1,inactive: 0.112

row,Sequence,z-score
1,CGCAUGUGGAAAUGUAACATT against Kbtbd4,inactive: -0.472
2,CGGGUGAUGUCAAGUUACUTT against Amy1,inactive: 0.492
3,GGUGUGGAUGUGGUUUUAUTT against Atp5l,inactive: 0.466
4,GGGCAUUGUCAUGGAGAAUTT against Clstn3,inactive: -2.8
5,GGCAGAGGCCUUGUGUUUATT against Piwil2,inactive: 0.818
6,CGGAGUUGAGCCAGAAAAATT against Fbxo31,inactive: 0.575
7,GGUGAAGUCUGUGAGCAUUTT against Gna12,inactive: -1.55
8,GGAGAUUGGUGUUAGUAACTT against Sp7,inactive: 0.083
9,GGAAGAAAGAGAAAACCUCTT against Slc4a3,inactive: 1.2
10,GCAAUUCCUGGACAUUUAATT against Prkcd,inactive: 0.415
11,GACAUACCAGCCGUAUAACTT against Erh,inactive: -2.46
12,CCGAAAAGUGUGGCGAGAATT against Arid3c,inactive: -1.29
13,GGUGAAUGUGUGGAUUAUCTT against Itih2,inactive: 0.825
14,CCGGUCUCAAAAUUAAGAATT against E430004N04Rik,inactive: -0.0641
15,GGACUCAGGGACCUUAUUATT against Apobec1,inactive: -2.23
16,GCACGAAUCCUUUGUAUCATT against Spna1,inactive: -1.24
17,GGACACAGACAUGUAUAAUTT against 9430041O17Rik,inactive: -0.194
18,GCACAACAUCCCAGAUAAATT against C030011J08Rik,inactive: -0.302
19,GGGUUUUGCAUUACACAAGTT against Notch3,inactive: 0.339
20,GGUUAUAGGAAGGAAUUGCTT against 4732456N10Rik,inactive: 0.755
21,GGAGACUCUACUAAUCAUCTT against Pigh,inactive: 1.66
22,GUCUAGCACAUUCUUUGGCTT against Olfr1107,inactive: -0.712
23,GGCAAGAAGUCUGACAACATT against Gng4,inactive: -0.543

row,Sequence,z-score
1,GGCAAGAUCAAAGAGAAGATT against Psmc3ip,inactive: -0.949
2,GCCUGUAGUCAGAUAUUUCTT against Hdgf,inactive: -0.0633
3,GGGCAAUUUCAAACUAUUATT against Myf5,inactive: 0.759
4,GGAAUUUCUGCGCACCUAUTT against Catnbip1,inactive: -0.104
5,GCACUUAUCGACUAUUUCATT against Laf4,inactive: -0.253
6,CCCACCACUAUUUAUAUGATT against Dlgh2,inactive: -0.134
7,GGUCAAAGUGAUGCACGCCTT against Sfxn2,inactive: -0.333
8,GCAGAACCUUAAAAGAAUGTT against Cabyr,inactive: 1.19
9,GGAACAAUCAAACUGGCUGTT against Cdc2a,inactive: -1.45
10,GGAAGUCAAGCAUAUUGCCTT against Sntb2,inactive: -0.593
11,GGAGAAGGAGUGCAAUUCCTT against Ptger3,inactive: -0.0412
12,GGCCAAUAAUGUGUUUCGUTT against Tyki,inactive: 1.1
13,GGUUGUAUUAUUGGCUUUGTT against Snrpe,inactive: 0.85
14,CCAACAGCAACGAUGACAATT against Fmip,inactive: -3.16
15,GGGCUCUAGCUAAAAACGATT against D13Wsu50e,inactive: 1.79
16,CCUACAUUAAGCAAGGGACTT against Stk35,inactive: 0.66
17,CGGCAUCCAUCUUUAGUGUTT against Hrh1,inactive: 0.309
18,GGAACUAGAAACUUCUUUUTT against B230382K22Rik,inactive: 0.318
19,CGAAUGUCCUGGAAGCAAATT against Olfr142,inactive: -2.75
20,GCCACAUUGCUUAUGGCUGTT against 2310016N21Rik,inactive: 0.959
21,GGCAUGUUUCUUGACUUAATT against Coil,inactive: -1.59

# Some values from the list.
# Entry for GGAAUUUCUGCGCACCUAUTT against Catnbip1 under z-score: inactive: -0.104
# Entry for GCCUGUAGUCAGAUAUUUCTT against Hdgf under z-score: inactive: -0.0633
# Entry for GGCAAGAUCAAAGAGAAGATT against Psmc3ip under z-score: inactive: -0.949
# Entry for GGAAGUCAAGCAUAUUGCCTT against Sntb2 under z-score: inactive: -0.593
